No constants are given. Whether binding was seen depends on the method and setting. Binding calls can cover weak binding; strength is not graded here. Where a sequence is shown, tags or fusion partners need not be part of it.
Biological target: T1, myc-endoglin (UniProt P17813)
T1 sequence (looked up): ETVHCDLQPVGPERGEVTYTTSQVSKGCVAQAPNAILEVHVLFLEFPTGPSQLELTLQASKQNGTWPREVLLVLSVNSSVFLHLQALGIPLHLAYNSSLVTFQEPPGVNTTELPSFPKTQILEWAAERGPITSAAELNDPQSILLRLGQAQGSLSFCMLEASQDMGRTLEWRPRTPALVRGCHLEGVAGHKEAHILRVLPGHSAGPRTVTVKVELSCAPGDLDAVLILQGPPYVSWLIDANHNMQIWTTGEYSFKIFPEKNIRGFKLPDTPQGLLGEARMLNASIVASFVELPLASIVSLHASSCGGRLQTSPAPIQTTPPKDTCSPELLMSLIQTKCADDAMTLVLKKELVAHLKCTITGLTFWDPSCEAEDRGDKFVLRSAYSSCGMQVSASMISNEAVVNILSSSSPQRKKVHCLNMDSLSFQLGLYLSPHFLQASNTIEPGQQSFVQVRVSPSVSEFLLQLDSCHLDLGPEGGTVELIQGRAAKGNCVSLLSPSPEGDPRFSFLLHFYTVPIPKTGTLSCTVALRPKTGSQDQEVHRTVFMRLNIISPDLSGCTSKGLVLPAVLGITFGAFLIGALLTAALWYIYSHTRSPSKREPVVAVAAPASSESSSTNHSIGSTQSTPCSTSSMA
Experiment: patch/FRAP on live COS7 cells

binding: binds
Substance: extracellularly tagged HA-ALK4 (human) (receptor)
